# The inconclusive results got no clear call from the source; some entries with a clear call stand among them for comparison. For some assays here: Potencies of inconclusive entries are doubtful fits and often do not repeat. Activity calls are given as the source filed them. Rule for the calls: active = hit-call score of the fitted dose curve at least 0.9, where 1 is the maximum; inconclusive = response in the unintended direction; inactive = score below 0.9.
# Chains of the proteins cited; added tags and fusions are not shown. Lines headed by an entry give the natural chain unless they say otherwise; changes in a name come on top.
# UniProt O75469: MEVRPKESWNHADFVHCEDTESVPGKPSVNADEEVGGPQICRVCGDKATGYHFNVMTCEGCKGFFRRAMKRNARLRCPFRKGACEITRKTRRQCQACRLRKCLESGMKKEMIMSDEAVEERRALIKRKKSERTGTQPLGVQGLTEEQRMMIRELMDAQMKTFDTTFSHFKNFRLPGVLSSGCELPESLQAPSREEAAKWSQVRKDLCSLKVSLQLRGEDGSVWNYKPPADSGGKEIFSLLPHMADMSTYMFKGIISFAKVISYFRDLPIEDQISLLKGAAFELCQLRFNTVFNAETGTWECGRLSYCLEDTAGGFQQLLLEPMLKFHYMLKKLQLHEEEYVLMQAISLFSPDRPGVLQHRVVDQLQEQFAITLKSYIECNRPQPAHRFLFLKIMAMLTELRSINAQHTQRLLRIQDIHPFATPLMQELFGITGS
# UniProt Q96RI1: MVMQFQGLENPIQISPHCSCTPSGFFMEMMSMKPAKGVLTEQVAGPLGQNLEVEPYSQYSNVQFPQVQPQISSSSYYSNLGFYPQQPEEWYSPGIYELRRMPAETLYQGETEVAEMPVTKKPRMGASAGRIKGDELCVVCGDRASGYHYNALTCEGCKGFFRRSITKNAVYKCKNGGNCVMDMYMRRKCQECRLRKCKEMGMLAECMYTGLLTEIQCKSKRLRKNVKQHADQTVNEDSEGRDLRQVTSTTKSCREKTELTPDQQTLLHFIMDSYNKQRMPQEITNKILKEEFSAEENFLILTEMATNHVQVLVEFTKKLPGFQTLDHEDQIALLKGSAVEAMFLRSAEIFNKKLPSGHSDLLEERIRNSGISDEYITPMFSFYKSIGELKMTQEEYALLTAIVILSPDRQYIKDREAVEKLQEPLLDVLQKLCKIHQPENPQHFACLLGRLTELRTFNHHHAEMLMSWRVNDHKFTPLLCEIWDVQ
# UniProt P19785, whole entry, looked up: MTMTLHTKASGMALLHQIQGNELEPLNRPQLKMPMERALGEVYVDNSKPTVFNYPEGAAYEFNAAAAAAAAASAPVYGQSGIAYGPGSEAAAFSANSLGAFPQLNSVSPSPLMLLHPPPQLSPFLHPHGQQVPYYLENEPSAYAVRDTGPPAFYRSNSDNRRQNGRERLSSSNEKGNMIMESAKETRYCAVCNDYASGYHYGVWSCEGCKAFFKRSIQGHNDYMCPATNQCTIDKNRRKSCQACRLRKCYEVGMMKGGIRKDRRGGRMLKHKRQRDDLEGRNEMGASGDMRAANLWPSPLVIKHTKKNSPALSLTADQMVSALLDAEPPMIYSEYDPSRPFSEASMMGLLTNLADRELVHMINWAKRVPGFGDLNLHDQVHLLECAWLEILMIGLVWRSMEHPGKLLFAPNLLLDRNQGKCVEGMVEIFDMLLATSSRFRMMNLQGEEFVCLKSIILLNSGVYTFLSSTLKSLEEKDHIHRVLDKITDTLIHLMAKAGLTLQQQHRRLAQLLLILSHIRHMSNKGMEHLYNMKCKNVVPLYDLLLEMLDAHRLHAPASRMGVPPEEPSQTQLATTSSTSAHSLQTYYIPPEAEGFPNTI
# UniProt P10275: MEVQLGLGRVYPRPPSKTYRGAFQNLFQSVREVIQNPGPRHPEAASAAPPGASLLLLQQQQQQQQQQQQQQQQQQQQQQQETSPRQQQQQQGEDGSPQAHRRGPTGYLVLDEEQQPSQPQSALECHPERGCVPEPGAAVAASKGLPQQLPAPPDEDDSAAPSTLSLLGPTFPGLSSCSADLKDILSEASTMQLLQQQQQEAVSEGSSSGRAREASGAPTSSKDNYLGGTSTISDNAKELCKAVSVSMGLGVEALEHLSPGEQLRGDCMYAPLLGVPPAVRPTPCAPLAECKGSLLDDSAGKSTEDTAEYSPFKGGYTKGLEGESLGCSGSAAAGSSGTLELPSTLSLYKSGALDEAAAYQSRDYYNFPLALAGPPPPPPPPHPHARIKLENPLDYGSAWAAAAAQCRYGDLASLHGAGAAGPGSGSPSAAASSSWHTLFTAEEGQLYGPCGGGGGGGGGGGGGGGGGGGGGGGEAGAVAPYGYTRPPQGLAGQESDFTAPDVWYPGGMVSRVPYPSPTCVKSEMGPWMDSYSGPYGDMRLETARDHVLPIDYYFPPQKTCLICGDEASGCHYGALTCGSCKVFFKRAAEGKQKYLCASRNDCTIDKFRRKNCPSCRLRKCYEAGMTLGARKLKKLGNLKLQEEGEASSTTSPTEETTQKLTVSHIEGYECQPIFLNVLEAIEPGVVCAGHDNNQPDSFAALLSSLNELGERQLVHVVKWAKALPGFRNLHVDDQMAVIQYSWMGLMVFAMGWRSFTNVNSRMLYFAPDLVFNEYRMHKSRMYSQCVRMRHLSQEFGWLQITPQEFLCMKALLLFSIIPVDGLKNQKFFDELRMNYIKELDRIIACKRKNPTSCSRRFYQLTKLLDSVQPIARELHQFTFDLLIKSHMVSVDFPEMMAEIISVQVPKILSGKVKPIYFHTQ
# UniProt P15207: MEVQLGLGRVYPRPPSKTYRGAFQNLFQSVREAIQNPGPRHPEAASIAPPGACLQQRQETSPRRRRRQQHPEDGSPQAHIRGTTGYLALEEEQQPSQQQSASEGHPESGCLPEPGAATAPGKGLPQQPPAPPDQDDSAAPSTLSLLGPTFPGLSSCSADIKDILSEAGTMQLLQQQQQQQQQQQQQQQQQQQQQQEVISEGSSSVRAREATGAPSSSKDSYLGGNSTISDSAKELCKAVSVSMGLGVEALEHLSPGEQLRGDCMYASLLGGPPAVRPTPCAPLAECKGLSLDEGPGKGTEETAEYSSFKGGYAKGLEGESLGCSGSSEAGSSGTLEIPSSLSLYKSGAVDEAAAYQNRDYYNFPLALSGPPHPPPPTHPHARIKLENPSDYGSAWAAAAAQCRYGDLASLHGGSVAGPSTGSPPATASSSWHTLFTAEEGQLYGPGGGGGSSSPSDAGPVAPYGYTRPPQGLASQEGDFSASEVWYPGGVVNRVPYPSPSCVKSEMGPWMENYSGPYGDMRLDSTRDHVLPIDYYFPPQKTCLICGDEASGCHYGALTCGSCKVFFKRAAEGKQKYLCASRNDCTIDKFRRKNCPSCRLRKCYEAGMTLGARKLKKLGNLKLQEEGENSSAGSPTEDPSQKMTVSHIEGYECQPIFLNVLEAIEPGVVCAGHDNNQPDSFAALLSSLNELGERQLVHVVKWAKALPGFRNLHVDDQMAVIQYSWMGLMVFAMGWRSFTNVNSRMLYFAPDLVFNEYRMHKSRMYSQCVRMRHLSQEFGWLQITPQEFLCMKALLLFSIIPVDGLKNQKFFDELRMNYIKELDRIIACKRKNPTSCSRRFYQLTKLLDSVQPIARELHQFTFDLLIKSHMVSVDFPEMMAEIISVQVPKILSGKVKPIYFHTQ
# UniProt Q92731, whole entry, looked up: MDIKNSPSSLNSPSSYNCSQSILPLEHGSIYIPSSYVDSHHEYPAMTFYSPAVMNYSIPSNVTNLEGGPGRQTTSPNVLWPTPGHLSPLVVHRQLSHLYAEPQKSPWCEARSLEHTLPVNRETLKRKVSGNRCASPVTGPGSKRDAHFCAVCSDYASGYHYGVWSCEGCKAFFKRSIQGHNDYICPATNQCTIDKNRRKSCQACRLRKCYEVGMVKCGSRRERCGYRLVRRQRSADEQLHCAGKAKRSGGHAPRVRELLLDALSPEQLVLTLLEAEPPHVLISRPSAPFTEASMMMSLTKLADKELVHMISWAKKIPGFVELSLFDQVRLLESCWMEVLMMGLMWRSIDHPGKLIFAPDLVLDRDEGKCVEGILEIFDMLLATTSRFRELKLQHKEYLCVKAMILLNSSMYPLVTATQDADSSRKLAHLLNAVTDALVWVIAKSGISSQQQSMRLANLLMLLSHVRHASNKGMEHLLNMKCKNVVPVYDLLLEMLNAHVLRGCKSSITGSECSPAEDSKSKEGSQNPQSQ
# UniProt P37231: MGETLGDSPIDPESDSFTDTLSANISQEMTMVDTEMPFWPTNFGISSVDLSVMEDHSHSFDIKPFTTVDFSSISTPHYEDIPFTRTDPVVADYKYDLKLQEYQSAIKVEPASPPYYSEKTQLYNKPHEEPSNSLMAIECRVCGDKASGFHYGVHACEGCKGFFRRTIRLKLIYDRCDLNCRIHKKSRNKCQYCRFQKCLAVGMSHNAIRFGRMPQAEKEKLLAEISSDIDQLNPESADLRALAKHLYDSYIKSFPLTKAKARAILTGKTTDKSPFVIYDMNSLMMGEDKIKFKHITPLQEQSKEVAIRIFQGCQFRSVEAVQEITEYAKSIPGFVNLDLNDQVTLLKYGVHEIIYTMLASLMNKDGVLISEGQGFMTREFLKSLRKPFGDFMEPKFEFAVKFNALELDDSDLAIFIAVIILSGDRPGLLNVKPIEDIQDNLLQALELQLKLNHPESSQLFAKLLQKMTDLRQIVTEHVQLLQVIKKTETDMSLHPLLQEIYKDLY
# Tests used:
# [1] = biological target: Nuclear receptor subfamily 1 group I member 2 (Homo sapiens) (UniProt O75469); test: NVS_NR_hPXR: NovaScreen (NVS) Nuclear Receptor Binding Assay for human Pregnane X Receptor (PXR) (AID 2283365);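 note: a drop in FRET signal versus DMSO baseline means the compound binds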
# Outline: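 Human PXR binding measured by TR-FRET in a cell-free format, 2 h exposure. Single-concentration duplicates at 25 uM preceded concentration-response retests of actives; endpoint fitted positively relative to DMSO, loss of signal indicating binding.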
# [2] = biological target: Bile acid receptor (Homo sapiens) (UniProt Q96RI1); test: OT_FXR_FXRSRC1_0480: Odyssey Thera (OT) 8-hour HEK293T Protein-Complementation Assay for Farnesoid X receptor/SRC-1 Co-activator (AID 2283383)
# Outline: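 Readings were taken 8 h after dosing HEK293T cells in a split-reporter complementation format pairing FXR with SRC-1. Increased fluorescence relative to DMSO-treated wells defined activity.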
# [3] = biological target: Bile acid receptor (Homo sapiens) (UniProt Q96RI1); test: OT_FXR_FXRSRC1_1440: Odyssey Thera (OT) 24-hour HEK293T Protein-Complementation Assay for Farnesoid X receptor/SRC-1 Co-activator (AID 2283384)
# Outline: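 Single endpoint, analysed for increased fluorescence against DMSO controls. HEK293T cells carrying FXR and SRC-1 linked to complementary reporter halves were exposed to chemicals for 24 h before reading.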
# [4] = biological target: mouse Estrogen Receptor alpha (Era), Esr1 (gene 13982) (UniProt P19785); test: NVS_NR_mERa: NovaScreen (NVS) Nuclear Receptor Binding Assay for mouse Estrogen Receptor alpha (Era) (AID 2283378);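 note: hit means loss of bound radioligand signal relative to DMSO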
# Outline: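 Filter radiodetection of radioligand displacement from extracted receptor protein, measured 18 h post-dose. Single 25 uM concentration in duplicate initially, with concentration-series follow-up. Binding loss fitted relative to DMSO.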
# [5] = biological target: Agonist Androgen Response Element (ARE), AR (gene 367) (UniProt P10275); test: OT_AR_ARELUC_AG_1440: Odyssey Thera (OT) 24-hour CHO-K1 Luciferase Assay for Agonist Androgen Response Element (ARE) (AID 2283379)
# Outline: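 Gain-of-signal reporter endpoint: cells (CHO-K1, hamster) are treated 24 h, luciferin/ATP reagent added, and luminescence compared with DMSO baseline.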
# [6] = biological target: rat Androgen Receptor (AR), Ar (gene 24208) (UniProt P15207); test: NVS_NR_rAR: NovaScreen (NVS) Nuclear Receptor Binding Assay for rat Androgen Receptor (AR) (AID 2283366)
# Outline: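 Actives from a duplicate single-concentration (25 uM) primary run went on to concentration series. Displacement of radioligand was counted by filtration and scintillation, 18 h post-dose, using prostate extracts from testosterone-pretreated rats, with DMSO as baseline.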
# [7] = biological target: Estrogen receptor beta (Homo sapiens) (UniProt Q92731); test: OT_ER_ERbERb_1440: Odyssey Thera (OT) 24-hour HEK293T Protein-Complementation Assay for Estrogen Receptor-beta/-beta Homodimer (AID 2283380);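 note: scored as signal increase over DMSO baseline for both agonists and antagonists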
# Outline: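 HEK293T cells stably expressing ER beta LBD (aa 310-547) homodimer fragment-complementation reporter, dosed 24 h. Cells formaldehyde-fixed, Draq5-stained; gain in nuclear (agonist) or nuclear plus cytoplasmic (antagonist) fluorescence versus DMSO read by laser scanning cytometry.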
# [8] = biological target: Peroxisome proliferator-activated receptor gamma (Homo sapiens) (UniProt P37231); test: NVS_NR_hPPARg: NovaScreen (NVS) Nuclear Receptor Binding Assay for human Peroxisome Proliferator-activated Receptor gamma (PPARg) (AID 2283370)
# Outline: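 Fluorescence polarization readout of ligand binding to extracted human PPARg, measured at 2 h. Duplicate single-point screen at 25 uM, then concentration-series retesting; activity defined as signal loss versus DMSO.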
smiles,measurement,setting,value
C1CN(SSN2CCOCC2)CCO1,outcome,[1],inactive
same,AC50,[2],inconclusive: 73.5 µM
same,AC50,[3],inconclusive: 91.6 µM
CC(C)C1=CC2=CC[C@@H]3[C@](C)(CCC[C@@]3(C)C(=O)O)[C@H]2CC1,AC50,[1],active: 16 µM
same,outcome,[4],inactive
COc1cc(O)c(C(=O)c2ccccc2)cc1S(=O)(=O)O,AC50,[1],inconclusive: 25 µM
same,AC50,[2],inconclusive: 49.5 µM
CC(C)CCCCCCc1ccc(OCCOCCO)cc1,outcome,[1],inactive
same,AC50,[5],active: 3.19 µM
CC1=CC(=O)/C(=C(/C)O)C(=O)O1,AC50,[1],inconclusive: 0.00647 µM
same,outcome,[2],inactive
COCCOCCC[Si](C)(O[Si](C)(C)C)O[Si](C)(C)C,AC50,[6],inconclusive: 7.21 µM
same,AC50,[2],active: 50 µM
same,outcome,[3],inactive
NCCN1CCNCC1,outcome,[1],inactive
same,outcome,[7],inactive
CCC(Cc1c(I)cc(I)c(N)c1I)C(=O)O (stereo not given),AC50,[1],inconclusive: 38.4 µM
same,outcome,[4],inactive
same,outcome,[3],inactive
CSc1ccc(Oc2ccc(S(N)(=O)=O)cc2CN(C)C)cc1C,outcome,[1],inactive
same,outcome,[4],inactive
same,outcome,[2],inactive
BrC1CCC(Br)C(Br)CCC(Br)C(Br)CCC1Br (stereo not given),AC50,[6],inconclusive: 21.8 µM
same,outcome,[8],inactive
same,AC50,[2],active: 18.2 µM
same,AC50,[3],active: 17.4 µM
CCCCCC(=O)O[C@]1(C(C)=O)CC[C@H]2[C@@H]3CCC4=CC(=O)CC[C@]4(C)[C@H]3CC[C@@]21C,outcome,[1],inactive
same,outcome,[4],inactive
same,AC50,[2],active: 5.16 µM
same,AC50,[3],active: 11.6 µM
CC(C)(C)C(=O)c1ccccc1,AC50,[1],inconclusive: 1.26 µM
same,AC50,[4],inconclusive: 0.765 µM
same,AC50,[2],inconclusive: 50 µM
CCCCOCCOC(=O)COc1ccc(Cl)cc1Cl,AC50,[1],inconclusive: 25 µM
same,outcome,[7],inactive

# An excerpt of these results, bar-delimited:
smiles | measurement | setting | value
CCC(Cc1c(I)cc(I)c(N)c1I)C(=O)O (stereo not given) | AC50 | [1] | inconclusive: 38.4 µM
same | outcome | [4] | inactive
same | outcome | [3] | inactive
CSc1ccc(Oc2ccc(S(N)(=O)=O)cc2CN(C)C)cc1C | outcome | [1] | inactive
same | outcome | [4] | inactive
same | outcome | [2] | inactive
BrC1CCC(Br)C(Br)CCC(Br)C(Br)CCC1Br (stereo not given) | AC50 | [6] | inconclusive: 21.8 µM
same | outcome | [8] | inactive

# — PubChem BioAssay (EPA / NIEHS)
